Data as given in PubChem BioAssay AID1259308 (NCATS, 2017)
The whole screen tested about 59,000 reagents; shown is an unselected part. Of all reagents, about 1,510 (2.6%) got an active call. 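Calls use total luciferase alone and ignore viability, so some active siRNAs may act by altering cell number.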 Entries without a mark were called inactive. The numbers tell different reagents against one gene apart. Not all columns of the deposit are shown.

Test: 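Candidate targets for better recombinant protein yield in mammalian cells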 (primary screen)
Cell system: human HEK293 embryonic kidney cells stably expressing firefly luciferase (HEK-CMV-Luc2-Hygro)
Reagents: single siRNA against human genes, 0.8 pmol siRNA per well
Timing: 72 h
Measurement: 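Luciferase light (ONE-Glo) measured on one replicate plate set and viability (CellTiter-Glo) on the other, scaled to a negative control siRNA, with robust z-scores and luciferase per cell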
Direction: total luciferase, z-score and total luciferase, % of control: higher = more reporter protein produced; luciferase per cell, z-score: higher = more reporter output per viable cell
Hit rule: 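Active when the median/MAD z-score for overall luciferase is greater than 3; a gene was taken forward for validation with new siRNAs if at least two of its three siRNAs passed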
Meaning of the calls: active = raised luciferase; inactive = no rise

| Gene | reagent | total luciferase, z-score | total luciferase, % of control | luciferase per cell, z-score |
| --- | --- | --- | --- | --- |
| GPR55 (GeneID 9290) | 1 | -1.68 | 48.5 | -0.824 |
| GPR55 (GeneID 9290) | 2 | 0.803 | 97.9 | 1.15 |
| GPR55 (GeneID 9290) | 3 | 0.0247 | 82.4 | 0.447 |
| MB (GeneID 4151) | 1 | 0.219 | 86.2 | 0.0163 |
| MB (GeneID 4151) | 2 | 1.35 | 109 | 1.01 |
| MB (GeneID 4151) | 3 | -0.0597 | 80.7 | 0.381 |
| RPL18A (GeneID 6142) | 1 | -2.67 | 28.7 | -1.13 |
| RPL18A (GeneID 6142) | 2 | -2.37 | 34.7 | -1.1 |
| RPL18A (GeneID 6142) | 3 | -2.97 | 22.8 | -3.56 |
| CUL7 (GeneID 9820) | 1 | 2.34 | 128 | 2.21 |
| CUL7 (GeneID 9820) | 2 | 0.904 | 99.9 | 0.647 |
| CUL7 (GeneID 9820) | 3 | 1.03 | 102 | 1.64 |
| LTBP1 (GeneID 4052) | 1 | -0.305 | 75.8 | -0.46 |
| LTBP1 (GeneID 4052) | 2 | -0.138 | 79.2 | -0.0683 |
| LTBP1 (GeneID 4052) | 3 | 1.68 | 115 | 1.99 |
| ABCA13 (GeneID 154664) | 1 | 0.393 | 89.7 | 1.32 |
| ABCA13 (GeneID 154664) | 2 | -0.977 | 62.5 | -0.822 |
| ABCA13 (GeneID 154664) | 3 | -0.811 | 65.8 | -1.15 |
| KCNT2 (GeneID 343450) | 1 | 0.123 | 84.3 | 0.192 |
| KCNT2 (GeneID 343450) | 2 | -0.453 | 72.9 | -0.368 |
| KCNT2 (GeneID 343450) | 3 | -2.71 | 28 | -3.54 |

Reprinted from the entries so far for reference:
| Gene | reagent | total luciferase, z-score | total luciferase, % of control | luciferase per cell, z-score |
| --- | --- | --- | --- | --- |
| MB (GeneID 4151) | 3 | -0.0597 | 80.7 | 0.381 |
| RPL18A (GeneID 6142) | 1 | -2.67 | 28.7 | -1.13 |
| RPL18A (GeneID 6142) | 2 | -2.37 | 34.7 | -1.1 |
| RPL18A (GeneID 6142) | 3 | -2.97 | 22.8 | -3.56 |
| CUL7 (GeneID 9820) | 1 | 2.34 | 128 | 2.21 |
| CUL7 (GeneID 9820) | 2 | 0.904 | 99.9 | 0.647 |
| CUL7 (GeneID 9820) | 3 | 1.03 | 102 | 1.64 |
| LTBP1 (GeneID 4052) | 1 | -0.305 | 75.8 | -0.46 |

Further records follow:
| Gene | reagent | total luciferase, z-score | total luciferase, % of control | luciferase per cell, z-score |
| --- | --- | --- | --- | --- |
| DNAH9 (GeneID 1770) | 1 | -0.249 | 76.9 | 0.0518 |
| DNAH9 (GeneID 1770) | 2 | -0.0735 | 80.4 | -0.47 |
| DNAH9 (GeneID 1770) | 3 | 0.406 | 90 | 0.179 |
| EEF1A1P33 (GeneID 390352) | 1 | -0.125 | 79.4 | -0.464 |
| EEF1A1P33 (GeneID 390352) | 2 | 0.236 | 86.6 | 1.15 |
| EEF1A1P33 (GeneID 390352) | 3 | 0.989 | 102 | 1.77 |
| LOC338963 (GeneID 338963) | 1 | 5.12 (active) | 184 | 3.24 |
| LOC338963 (GeneID 338963) | 2 | -0.425 | 73.4 | 0.449 |
| LOC338963 (GeneID 338963) | 3 | 2.08 | 123 | 2.62 |
| ANXA2R (GeneID 389289) | 1 | 0.0634 | 83.1 | 0.399 |
| ANXA2R (GeneID 389289) | 2 | -0.464 | 72.7 | -1.01 |
| ANXA2R (GeneID 389289) | 3 | 0.287 | 87.6 | -0.408 |
| PTPRC (GeneID 5788) | 1 | 0.4 | 89.8 | 0.000624 |
| PTPRC (GeneID 5788) | 2 | 1.05 | 103 | 0.226 |
| PTPRC (GeneID 5788) | 3 | 1.41 | 110 | 0.602 |
| ANKRD20A12P (GeneID 100874392) | 1 | 2.92 | 140 | 2.1 |
| ANKRD20A12P (GeneID 100874392) | 2 | 2.11 | 124 | 2.23 |
| ANKRD20A12P (GeneID 100874392) | 3 | -0.515 | 71.6 | -0.317 |
| ZNF682 (GeneID 91120) | 1 | 4.07 (active) | 163 | 2.39 |
| ZNF682 (GeneID 91120) | 2 | 1.74 | 117 | 2.15 |
| ZNF682 (GeneID 91120) | 3 | 0.182 | 85.5 | 0.622 |
| FKBP4 (GeneID 2288) | 1 | -0.243 | 77.1 | -0.555 |
| FKBP4 (GeneID 2288) | 2 | 1.05 | 103 | 0.929 |
| FKBP4 (GeneID 2288) | 3 | 0.0557 | 83 | 0.242 |
| NME4 (GeneID 4833) | 1 | 0.346 | 88.8 | 0.725 |
| NME4 (GeneID 4833) | 2 | 3.21 (active) | 146 | 3.05 |
| NME4 (GeneID 4833) | 3 | -2.41 | 34 | -1.01 |
| PSKH2 (GeneID 85481) | 1 | 1.33 | 108 | 1.24 |
| PSKH2 (GeneID 85481) | 2 | -0.881 | 64.4 | -1.3 |
| PSKH2 (GeneID 85481) | 3 | -0.558 | 70.8 | -0.325 |
| STX3 (GeneID 6809) | 1 | -0.538 | 71.2 | -0.714 |
| STX3 (GeneID 6809) | 2 | -1.82 | 45.7 | -2.24 |
| STX3 (GeneID 6809) | 3 | -1.42 | 53.7 | -1.14 |
| SNF8 (GeneID 11267) | 1 | -0.632 | 69.3 | -0.745 |
| SNF8 (GeneID 11267) | 2 | 1.88 | 119 | 1.02 |
| SNF8 (GeneID 11267) | 3 | -0.872 | 64.5 | -0.282 |
